Source: PMC12406728
These are yes or no findings as the source states them, for the method shown. Binding seen in cells or lysates may run through a third protein. A result given as binding can be weak or reduced; the word gives no strength.

Sequences of proteins named here, by UniProt entry; tags and fusion partners are left off. A change or cut given only in a name is not applied to a line headed by its entry.
UniProt P21860: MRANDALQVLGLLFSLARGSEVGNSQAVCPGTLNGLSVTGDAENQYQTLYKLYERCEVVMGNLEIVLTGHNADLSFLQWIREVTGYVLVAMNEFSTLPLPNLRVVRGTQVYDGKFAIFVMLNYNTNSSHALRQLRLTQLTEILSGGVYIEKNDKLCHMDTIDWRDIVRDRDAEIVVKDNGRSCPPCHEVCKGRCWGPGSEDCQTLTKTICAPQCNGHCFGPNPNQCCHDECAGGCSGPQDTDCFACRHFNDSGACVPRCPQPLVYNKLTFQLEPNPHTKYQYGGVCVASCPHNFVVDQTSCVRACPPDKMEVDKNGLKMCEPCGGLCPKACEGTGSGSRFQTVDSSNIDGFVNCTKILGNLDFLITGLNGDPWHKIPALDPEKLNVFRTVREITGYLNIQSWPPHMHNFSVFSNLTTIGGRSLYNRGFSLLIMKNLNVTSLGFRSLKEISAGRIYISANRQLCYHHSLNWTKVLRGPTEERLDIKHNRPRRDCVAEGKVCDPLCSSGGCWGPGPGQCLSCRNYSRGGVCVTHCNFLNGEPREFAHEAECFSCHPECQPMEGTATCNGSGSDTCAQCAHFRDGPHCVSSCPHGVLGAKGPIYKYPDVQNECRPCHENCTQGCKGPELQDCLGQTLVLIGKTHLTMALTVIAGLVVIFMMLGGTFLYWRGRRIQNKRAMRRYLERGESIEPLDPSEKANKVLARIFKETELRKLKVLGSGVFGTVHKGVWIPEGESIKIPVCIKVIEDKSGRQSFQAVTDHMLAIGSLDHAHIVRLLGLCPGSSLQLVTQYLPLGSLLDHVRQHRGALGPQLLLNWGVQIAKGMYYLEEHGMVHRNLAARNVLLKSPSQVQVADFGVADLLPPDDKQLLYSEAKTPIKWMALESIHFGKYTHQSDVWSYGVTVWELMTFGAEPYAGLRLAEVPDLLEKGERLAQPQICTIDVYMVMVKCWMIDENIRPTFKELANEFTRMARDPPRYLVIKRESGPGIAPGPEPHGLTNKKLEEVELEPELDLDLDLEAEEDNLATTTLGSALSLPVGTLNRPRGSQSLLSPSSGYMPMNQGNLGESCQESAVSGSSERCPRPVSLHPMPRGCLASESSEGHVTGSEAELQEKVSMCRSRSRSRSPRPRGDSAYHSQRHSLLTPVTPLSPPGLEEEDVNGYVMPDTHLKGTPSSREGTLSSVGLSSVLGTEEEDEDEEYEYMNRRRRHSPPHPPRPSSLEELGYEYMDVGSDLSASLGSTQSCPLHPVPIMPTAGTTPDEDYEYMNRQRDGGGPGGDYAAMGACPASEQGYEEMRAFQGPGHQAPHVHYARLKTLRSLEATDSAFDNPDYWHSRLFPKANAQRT

Assays:
Assay in all cases: co-IP; HEK293 cells transfected with FLAG-tagged HER3 (or deletion mutant) and ASPN or empty vector; anti-FLAG beads; immunoblot for HER3, HER2, ASPN
HER3ΔIII-3xFLAG = HER3ΔIII-3xFLAG (UniProt P21860)
HER3ΔI-3xFLAG = HER3ΔI-3xFLAG (UniProt P21860)
HER3ΔI/III-3xFLAG = HER3ΔI/III-3xFLAG (UniProt P21860)

binding (HER3ΔIII-3xFLAG): binds
binding (HER3ΔI-3xFLAG): binds
binding (HER3ΔI/III-3xFLAG): binds weakly
B1: human ASPN (transfected) (ligand, UniProt Q9BXN1 33-380)
chain: DMEDTDDDDDDDDDDDDDDEDNSLFPTREPRSHFFPFDLFPMCPFGCQCYSRVVHCSDLGLTSVPTNIPFDTRMLDLQNNKIKEIKENDFKGLTSLYGLILNNNKLTKIHPKAFLTTKKLRRLYLSHNQLSEIPLNLPKSLAELRIHENKVKKIQKDTFKGMNALHVLEMSANPLDNNGIEPGAFEGVTVFHIRIAEAKLTSVPKGLPPTLLELHLDYNKISTVELEDFKRYKELQRLGLGNNKITDIENGSLANIPRVREIHLENNKLKKIPSGLPELKYLQIIFLHSNSIARVGVNDFCPTVPKMKKSLYSAISLFNNPVKYWEMQPATFRCVLSRMSVQLGNFGM
